Measured values published in PubChem BioAssay AID2417 (National Center for Advancing Translational Sciences (NCATS), 2010).
The whole screen tested about 140,000 compounds, of which about 4,300 (3.1%) were called active. This list was built around the results that the source calls inconclusive (neither active nor inactive); the mix of calls is not that of the screen.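 Rule for the calls: active = readout at or below -70, meaning at least 70% loss of cells showing the perinucleolar compartment, a nuclear body marking cancer cells; inconclusive = readout between -30 and a set limit; inactive = the rest.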

Experiment: High Content Assay for Compounds that inhibit the Assembly of the Perinucleolar Compartment;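 note: plate controls were DMSO wells for no effect and camptothecin positive control wells for full effect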
Conditions: PC3M PTB-GFP, PNC prevalence imaging, 16 h; at 10 µM; active compounds read low
Method in brief: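 PC3M cells stably expressing PTB-GFP, 750–1000 cells/well, treated 16 h at 37 °C with compound (23 nl of library stock), in duplicate. After paraformaldehyde fixation and Hoechst stain, imaged at 20x; PNC prevalence scored by image analysis.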

| SMILES | activity change (PNC), negative = inhibition |
| --- | --- |
| CCc1ccc2[nH]c(=O)c(CN(Cc3ccc(F)cc3)C(c3nnnn3CCN3CCOCC3)C(C)C)cc2c1 (stereo unspecified) | active: -80.8% |
| CC(=O)c1c(C)[nH]c(C(=O)CSc2nnc(-c3cccs3)n2Cc2ccccc2)c1C | inconclusive: -32.9% |
| COCCn1c(-c2ccc(OC)cc2)cnc1SCC(=O)Nc1cc(C)on1 | inconclusive: -67.9% |
| CCOC(=O)C1CCCN(C(=O)COC(=O)c2cc(=O)c3ccccc3o2)C1 (stereo unspecified) | inconclusive: -32.4% |
| Cc1cc(C)nc(Nc2ccccc2Br)n1 | inconclusive: -45.1% |
| Cc1nc2sccn2c1-c1csc(NCc2ccccc2)n1 | inactive: -2.68% |
| CN(C)C(=O)CSc1nc(-c2ccccc2)nc2c1CCCC2 | inconclusive: -42.3% |
| O=C(CSc1nnnn1-c1ccccc1)CSc1nnnn1-c1ccccc1 | inactive: 9.96% |
| COc1ccc(CNc2oc(-c3cccc4ccccc34)nc2C#N)cc1 | inconclusive: -38.3% |
| CC(C)(C)C1CCc2c(sc(NC(=O)CSc3ncn[nH]3)c2C#N)C1 (stereo unspecified) | inactive: 12.6% |
| COc1ccc(S(=O)(=O)Nc2ccc3c(c2)COC3=O)cc1OC | inconclusive: -36.7% |
| Cc1nn(Cc2c(F)c(F)c(F)c(F)c2F)c(C)c1NC(=O)c1cccc(COc2ccc(Cl)cc2)c1 | inactive: -27.7% |
| Cc1ccc(C(C2C(=O)CC(C)(C)CC2=O)C2C(=O)CC(C)(C)CC2=O)s1 | inactive: -10.5% |
| S=C(Nc1ccccc1)Nc1ccc(Cl)cc1Cl | inconclusive: -53.3% |
| CC1NC2(C(=O)N(Cc3ccccc3)c3ccccc32)C2C(=O)N(c3ccccc3)C(=O)C12 (stereo unspecified) | inactive: -20.8% |
| Cc1nc(N)nc2c1CCCC2 | inconclusive: -37% |
| CCOc1cc(N2CCOCC2)c(OCC)cc1NS(=O)(=O)c1ccc(Cl)s1 | inconclusive: -40.7% |
| O=C1CC(=O)N(Cc2ccco2)C(=O)N1 | inactive: 11.3% |
| Cc1nn(Cc2ccc(C(=O)N3N=C(C(F)F)CC3(O)C(F)F)o2)c(C)c1[N+](=O)[O-] (stereo unspecified) | inconclusive: -53.8% |
| O=C(c1ccc(CS(=O)(=O)c2ccc(Br)cc2)o1)N1CCN(c2ncccn2)CC1 | inconclusive: -40.4% |
| COc1ccc(NCc2nnc(SCc3ccccc3)n2-c2ccc(OC)cc2)cc1 | inconclusive: -45.5% |
| CCCCOc1ccc(Cl)cc1CSc1nncn1N | active: -89.7% |
| Brc1ccc2ncc(Br)cc2c1 | inactive: -22.6% |

Structures listed so far that contain an aryl thioether with sulfur outside any ring:

| SMILES | activity change (PNC), negative = inhibition |
| --- | --- |
| CC(=O)c1c(C)[nH]c(C(=O)CSc2nnc(-c3cccs3)n2Cc2ccccc2)c1C | inconclusive: -32.9% |
| COCCn1c(-c2ccc(OC)cc2)cnc1SCC(=O)Nc1cc(C)on1 | inconclusive: -67.9% |
| CN(C)C(=O)CSc1nc(-c2ccccc2)nc2c1CCCC2 | inconclusive: -42.3% |
| O=C(CSc1nnnn1-c1ccccc1)CSc1nnnn1-c1ccccc1 | inactive: 9.96% |
| CC(C)(C)C1CCc2c(sc(NC(=O)CSc3ncn[nH]3)c2C#N)C1 (stereo unspecified) | inactive: 12.6% |
| COc1ccc(NCc2nnc(SCc3ccccc3)n2-c2ccc(OC)cc2)cc1 | inconclusive: -45.5% |
| CCCCOc1ccc(Cl)cc1CSc1nncn1N | active: -89.7% |

Going on with the list:

| SMILES | activity change (PNC), negative = inhibition |
| --- | --- |
| CCc1ccc(NC(=O)C2CC(=O)N(C(C)C)C2)cc1 (stereo unspecified) | inconclusive: -51.4% |
| O=C(NC1CCCCC1)C(c1ccc(F)cc1)N(Cc1ccco1)C(=O)CN1C(=O)c2ccccc2S1(=O)=O (stereo unspecified) | inactive: 8.93% |
| CCSC(=O)NC12CC3CC(CC(C3)C1)C2 | inconclusive: -70.2% |
| CCc1cc(=O)oc2cc3occ(-c4ccc(OC)c(F)c4)c3cc12 | active: -93.1% |
| Cc1ccc(/C=N/NC(=O)CSc2nnc(-c3ccccc3)n2-c2ccc(Cl)cc2)o1 | inconclusive: -32% |
| CN1/C(=C\C(=O)COC(=O)CNC(=O)c2ccc3ccccc3c2)C(C)(C)c2ccccc21 | inconclusive: -31.1% |
| CCOc1ccc(/C=C/C(=O)c2cc(Br)ccc(=O)c2O)cc1 | inconclusive: -57.5% |
| Nc1nc(Cl)cc(Sc2ccc(F)cc2)n1 | inconclusive: -33.7% |
| Cc1ccc(Nc2cc(C)nc(N3CCOCC3)n2)c(C)c1 | inconclusive: -78.9% |
| CCOc1ccccc1-n1c(SCC(N)=O)nc2ccccc2c1=O | active: -106% |
| CC(C)(C)c1ccc(NC(=O)COC(=O)c2ccc(NS(=O)(=O)c3ccc(F)c(F)c3)cc2)cc1 | inconclusive: -46.2% |
| O=C1CC(c2cccs2)CC2=C1C(c1ccccc1)n1ncnc1N2 (stereo unspecified) | inactive: 26.6% |
| Cc1ncoc1C(=O)NCc1ccccc1Cl | inconclusive: -63.2% |
| COc1ccc(Br)cc1/C=N/NC(=O)C(c1ccncc1)N1CCOCC1 (stereo unspecified) | inconclusive: -62.9% |
| COc1ccccc1NC(=O)Cc1cccs1 | inactive: 14.5% |
| O=C(O)CCSc1nnnn1-c1ccccc1 | inactive: -15.2% |
| Cc1nc2c(C)cccc2cc1C(=O)N/N=C/c1ccc(N(C)C)cc1 | inactive: -29.6% |
| CCCC(=O)C1=C(O)C(C(=O)OC)C(C)(C)CC1=Nc1ccc(N)cc1 (stereo unspecified) | inactive: -25.4% |
| Cc1ccc(C)c(NC(=O)COC(=O)CCCN=C2NS(=O)(=O)c3ccccc32)c1 | inconclusive: -41.2% |
| O=C(COC(=O)CCSc1ccc(Cl)cc1)Nc1ccc(F)cc1 | inactive: 11.8% |
| COc1ccc(OCC(=O)NC(=S)Nc2ccccc2F)cc1 | inconclusive: -43.9% |
| Cc1cccc(NS(=O)(=O)c2cc(C(=O)NCCC3=CCCCC3)ccc2Cl)c1 | inactive: -2.28% |
| COc1cc(Cl)c(S(=O)(=O)n2cnc(C)c2)cc1Cl | inconclusive: -54% |
